Results on five molecules are retold here after PMC8514439.

Protein sequences, listed by entry. Tags and fused reporters are not part of them. Residues count along the entry.
UniProt Q86YC2: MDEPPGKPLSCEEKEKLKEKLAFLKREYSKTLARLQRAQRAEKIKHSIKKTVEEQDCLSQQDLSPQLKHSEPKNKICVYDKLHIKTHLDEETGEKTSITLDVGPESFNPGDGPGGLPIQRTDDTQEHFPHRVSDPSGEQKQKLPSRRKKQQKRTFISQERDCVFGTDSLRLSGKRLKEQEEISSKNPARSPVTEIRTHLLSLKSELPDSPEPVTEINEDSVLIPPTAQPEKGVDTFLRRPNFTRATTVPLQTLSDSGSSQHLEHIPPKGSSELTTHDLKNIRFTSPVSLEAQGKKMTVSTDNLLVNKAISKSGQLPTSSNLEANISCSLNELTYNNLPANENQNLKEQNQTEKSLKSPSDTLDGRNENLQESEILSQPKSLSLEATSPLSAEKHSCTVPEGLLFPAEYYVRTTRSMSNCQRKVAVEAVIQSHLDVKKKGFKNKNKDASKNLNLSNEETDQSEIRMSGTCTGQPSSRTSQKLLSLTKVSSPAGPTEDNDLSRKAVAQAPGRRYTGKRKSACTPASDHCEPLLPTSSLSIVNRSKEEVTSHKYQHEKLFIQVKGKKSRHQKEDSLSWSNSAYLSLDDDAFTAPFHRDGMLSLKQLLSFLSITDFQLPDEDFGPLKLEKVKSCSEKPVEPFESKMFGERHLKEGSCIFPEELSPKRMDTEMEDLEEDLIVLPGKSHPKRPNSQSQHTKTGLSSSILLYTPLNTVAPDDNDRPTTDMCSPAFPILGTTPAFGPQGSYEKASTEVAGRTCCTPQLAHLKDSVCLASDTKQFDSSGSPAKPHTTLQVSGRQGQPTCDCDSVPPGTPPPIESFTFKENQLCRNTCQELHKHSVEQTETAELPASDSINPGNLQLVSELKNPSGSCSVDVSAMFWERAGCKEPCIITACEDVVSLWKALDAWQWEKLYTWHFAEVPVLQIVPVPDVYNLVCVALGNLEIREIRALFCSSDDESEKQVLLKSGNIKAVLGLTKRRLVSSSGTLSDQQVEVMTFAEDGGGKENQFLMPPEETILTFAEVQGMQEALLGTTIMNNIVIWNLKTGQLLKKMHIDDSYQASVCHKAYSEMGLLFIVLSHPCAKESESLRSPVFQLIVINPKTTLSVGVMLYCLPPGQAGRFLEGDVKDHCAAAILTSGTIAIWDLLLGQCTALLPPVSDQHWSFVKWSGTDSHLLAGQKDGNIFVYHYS
UniProt Q15014: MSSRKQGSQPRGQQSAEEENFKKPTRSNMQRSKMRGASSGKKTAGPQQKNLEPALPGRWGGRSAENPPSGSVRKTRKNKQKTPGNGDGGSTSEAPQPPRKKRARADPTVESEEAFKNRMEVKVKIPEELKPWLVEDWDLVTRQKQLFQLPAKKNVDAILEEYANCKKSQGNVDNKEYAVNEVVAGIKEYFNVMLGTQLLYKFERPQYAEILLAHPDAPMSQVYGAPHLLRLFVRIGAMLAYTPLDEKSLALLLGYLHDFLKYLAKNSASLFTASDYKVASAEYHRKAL
UniProt Q9UBU8: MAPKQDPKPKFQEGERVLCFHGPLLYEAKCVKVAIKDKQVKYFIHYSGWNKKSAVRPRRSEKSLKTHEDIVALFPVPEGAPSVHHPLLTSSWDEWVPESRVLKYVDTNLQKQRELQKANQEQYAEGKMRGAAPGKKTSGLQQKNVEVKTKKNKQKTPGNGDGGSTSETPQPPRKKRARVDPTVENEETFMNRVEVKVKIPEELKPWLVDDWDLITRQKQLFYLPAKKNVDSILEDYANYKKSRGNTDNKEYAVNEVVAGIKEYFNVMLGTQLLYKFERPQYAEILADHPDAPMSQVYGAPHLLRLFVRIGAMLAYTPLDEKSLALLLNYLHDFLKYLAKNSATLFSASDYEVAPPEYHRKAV
UniProt P02545, residues 1-646: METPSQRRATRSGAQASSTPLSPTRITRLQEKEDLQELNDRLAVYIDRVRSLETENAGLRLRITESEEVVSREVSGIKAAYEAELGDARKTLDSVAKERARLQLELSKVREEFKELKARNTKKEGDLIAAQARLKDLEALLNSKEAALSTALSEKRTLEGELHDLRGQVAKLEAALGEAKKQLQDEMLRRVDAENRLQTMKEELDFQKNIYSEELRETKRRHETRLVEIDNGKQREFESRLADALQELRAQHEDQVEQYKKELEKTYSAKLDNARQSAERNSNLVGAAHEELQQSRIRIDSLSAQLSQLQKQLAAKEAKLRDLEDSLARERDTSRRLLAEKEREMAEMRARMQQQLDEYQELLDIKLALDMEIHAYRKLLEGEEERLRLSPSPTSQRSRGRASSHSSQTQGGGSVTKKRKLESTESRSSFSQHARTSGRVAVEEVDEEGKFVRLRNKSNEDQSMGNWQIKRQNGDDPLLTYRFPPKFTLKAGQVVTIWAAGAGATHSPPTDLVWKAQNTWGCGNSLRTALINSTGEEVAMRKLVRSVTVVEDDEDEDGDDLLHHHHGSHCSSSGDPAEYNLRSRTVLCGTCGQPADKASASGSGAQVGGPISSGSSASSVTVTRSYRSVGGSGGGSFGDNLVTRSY
UniProt Q14145: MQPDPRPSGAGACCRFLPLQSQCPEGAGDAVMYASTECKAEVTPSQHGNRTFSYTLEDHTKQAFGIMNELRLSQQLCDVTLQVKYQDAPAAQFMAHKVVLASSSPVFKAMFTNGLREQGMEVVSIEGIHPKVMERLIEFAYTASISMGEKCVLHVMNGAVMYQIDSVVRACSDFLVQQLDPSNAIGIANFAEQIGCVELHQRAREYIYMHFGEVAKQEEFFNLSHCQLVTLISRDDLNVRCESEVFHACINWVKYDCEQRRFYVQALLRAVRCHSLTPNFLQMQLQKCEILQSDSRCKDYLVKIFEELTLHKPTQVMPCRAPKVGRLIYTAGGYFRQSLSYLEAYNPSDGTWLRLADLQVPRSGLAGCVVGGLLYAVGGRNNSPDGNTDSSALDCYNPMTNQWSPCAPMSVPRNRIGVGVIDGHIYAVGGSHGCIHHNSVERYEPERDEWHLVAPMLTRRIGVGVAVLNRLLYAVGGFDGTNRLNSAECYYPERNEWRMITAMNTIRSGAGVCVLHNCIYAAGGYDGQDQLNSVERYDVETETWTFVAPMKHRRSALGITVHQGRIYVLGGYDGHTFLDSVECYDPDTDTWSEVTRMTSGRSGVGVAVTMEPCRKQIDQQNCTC

This test has as its target FLAG-HA-double-tagged PALB2 (UniProt Q86YC2). The experiment in a line: affinity purification with mass spectrometry; tandem affinity purification (TAP) of FLAG-HA-PALB2 complex from stable HeLa S3 cells; whole purified material run ~1.5 cm into an SDS gel, trypsin digestion, LC-MS/MS; two independent experiments.

Results are given in words; binding and its absence hold for the method and conditions named. In cells and extracts the contact can be indirect. A yes stands for co-enrichment or nearness to the bait. Other partners may have been found.

Take “MRGX (endogenous, HeLa S3) (from UniProt Q15014 1-288)”: the binding result is reported as “binds”.

Consider “MRG15 (endogenous, HeLa S3) (from UniProt Q9UBU8 1-362)”, for which the binding result is given as “binds”.

For “LMNA (endogenous, HeLa S3) (from UniProt P02545 1-646)”, the binding entry is given as “binds”.

Regarding “KEAP1 (endogenous, HeLa S3) (from UniProt Q14145 1-624)”, the binding entry was “binds”.

B1: HNRNPM (endogenous, HeLa S3) (protein, UniProt P52272 1-730)
chain: MAAGVEAAAEVAATEIKMEEESGAPGVPSGNGAPGPKGEGERPAQNEKRKEKNIKRGGNRFEPYANPTKRYRAFITNIPFDVKWQSLKDLVKEKVGEVTYVELLMDAEGKSRGCAVVEFKMEESMKKAAEVLNKHSLSGRPLKVKEDPDGEHARRAMQKVMATTGGMGMGPGGPGMITIPPSILNNPNIPNEIIHALQAGRLGSTVFVANLDYKVGWKKLKEVFSMAGVVVRADILEDKDGKSRGIGTVTFEQSIEAVQAISMFNGQLLFDRPMHVKMDERALPKGDFFPPERPQQLPHGLGGIGMGLGPGGQPIDANHLNKGIGMGNIGPAGMGMEGIGFGINKMGGMEGPFGGGMENMGRFGSGMNMGRINEILSNALKRGEIIAKQGGGGGGGSVPGIERMGPGIDRLGGAGMERMGAGLGHGMDRVGSEIERMGLVMDRMGSVERMGSGIERMGPLGLDHMASSIERMGQTMERIGSGVERMGAGMGFGLERMAAPIDRVGQTIERMGSGVERMGPAIERMGLSMERMVPAGMGAGLERMGPVMDRMATGLERMGANNLERMGLERMGANSLERMGLERMGANSLERMGPAMGPALGAGIERMGLAMGGGGGASFDRAIEMERGNFGGSFAGSFGGAGGHAPGVARKACQIFVRNLPFDFTWKMLKDKFNECGHVLYADIKMENGKSKGCGVVKFESPEVAERACRMMNGMKLSGREIDVRIDRNA
Turning to B1, the binding entry is recorded as “binds”.
